Experimental data as given in PubChem BioAssay AID1347075 (National Center for Advancing Translational Sciences (NCATS), 2019).
The campaign covered roughly 400,000 compounds. About 5,500 (1.4%) were called active. The inconclusive results got no clear call from the source; some entries with a clear call stand among them for comparison. Calls come from the whole dose curve; as a rule, active = well fitted cell-killing curve with a large enough effect; inconclusive = small, poorly fitted or top-dose-only effect, or effect the other way; inactive = flat fitted curve, though single readings scatter. Potencies beside an inconclusive call are fits to weak or partial responses and may not hold up.

assay: qHTS assay for MDR1-selective chemotherapeutics: Primary screen using the parental adenocarcinoma cell KB-3-1; conditions: KB-3-1 viability, CellTiter-Glo ATP luminescence, 72 h; activity change, negative = cytotoxic: at 46.1 µM (top of the series); note: nearly all actives have a fitted effect of over 60% in size
Summary of the method: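 Luminescent ATP read-out (CellTiter-Glo) measures survival of drug-naive KB-3-1 cells after 72 h compound exposure at 37 °C. Titration series was screened from lowest to highest concentration, with DMSO vehicle plates as background controls.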
% is set by controls: 0 for no effect and ±100 for the full control effect; potency is the fitted concentration of half-maximal effect.

Structure (SMILES) | Potency | activity change, negative = cytotoxic
O=C(Nc1nc(-c2ccc([N+](=O)[O-])cc2)cs1)c1c(F)cccc1F | inactive | –
CCNC(=O)c1cccc(NC(=O)c2cc(C3CC3)nc3c2cnn3C(C)C)c1 | inconclusive: 18.4 µM [cytotoxic, single point] | –
CCCCCN1C(C(=O)c2ccccc2)=C(NC(=O)c2ccc(OC)c(OC)c2)c2ccccc2S1(=O)=O | inconclusive: 18.4 µM [cytotoxic, partial curve, poor fit] | –
Clc1ccc(-c2ccc(CNCCSc3nnnn3-c3ccccc3)o2)cc1 | inactive | –
CCN(CC)c1ccc(NC(=O)Cn2cc3c(n2)CCC(C)C3)c(C)c1 (stereo not given) | inconclusive: 18.4 µM [cytotoxic, single point] | –
C/C=C1\COC(C(=O)NCc2ccccc2)(C(F)(F)F)C=C1C=C1CCCCC1 (stereo not given) | inactive | –
COc1c(C)c2c(c(O)c1C/C=C(\C)CCC(=O)O)C(=O)OC2 | inconclusive: 23.1 µM [cytotoxic, partial curve, poor fit] | –
COc1ccc(/C=C2\C(=O)ON=C2c2ccccc2)cc1OC | inactive | –
Clc1ccccc1-c1nc(-c2ccncc2)no1 | inconclusive: 20.6 µM [cytotoxic, single point] | –
O=C(CCS(=O)(=O)c1ccc(F)cc1)Nc1nnc(-c2ccc(F)cc2)o1 | inactive | –
COC(=O)C1=C(C)NC(C)=C(C(=O)OCC2CCCO2)C1c1cccc(Br)c1 (stereo not given) | inactive | –
COc1ccc(OCCNC(=O)c2ccccc2OCC(=O)N2CCCCC2)cc1 | inconclusive: 11.6 µM [cytotoxic, partial curve] | –
COc1cc(C2Nc3ccccc3C(=O)N2c2ccccc2)c(Br)cc1OCC(=O)O (stereo not given) | inactive | –
COc1ccccc1-n1nc(C)c(-c2ccccc2)c1N | – | inconclusive: 2.24%
Cn1c(SCCc2ccc([N+](=O)[O-])cc2)nccc1=O | inconclusive: 4.11 µM [rising, full curve, poor fit] | –
O=C(NC1CCCCCC1)c1[nH]c(C(F)(F)F)nc1-c1ccccc1 | inconclusive: 25.9 µM [cytotoxic, single point] | –
O=C(Nc1cc(Cl)c(Cl)cc1Cl)c1cccnc1 | inconclusive: 29.1 µM [cytotoxic, single point] | –
O=[N+]([O-])c1cc(Cl)cc(/C=N/Nc2nc3ccccc3s2)c1O | inconclusive: 29.1 µM [cytotoxic, single point] | –
CCCCC(=O)NC(=S)Nc1ccc(S(=O)(=O)N2CCCC2)cc1 | inactive | –
CC(CNC(=O)c1sc2ncccc2c1-n1cccc1)c1ccccc1 (stereo not given) | inconclusive: 20.6 µM [cytotoxic, single point] | –
Cc1ccc(N=Cc2cc(Br)cc(Cl)c2O)cc1 | inactive | –
Cc1nc2scc(C)n2c(=O)c1S(=O)(=O)Nc1ccc(N2CCN(C(=O)C(C)C)CC2)cc1 | inconclusive: 29.1 µM [cytotoxic, partial curve, poor fit] | –
CN(Cc1ccc(C(C)(C)C)cc1)C(=O)c1ccc2c(=O)n3c(nc2c1)CCC3 | inactive | –
CN(C)C(=O)CCc1ccc2c3c([nH]c2c1)[C@]1(CCc2ccccc2)[C@@H](C(=O)N2CCCCC2)C[C@H](CC(=O)NCc2cccc(C(F)(F)F)c2)C(=O)N1CC3 | inconclusive: 29.1 µM [cytotoxic, single point] | –

Structure (SMILES) | Potency | activity change, negative = cytotoxic
COc1ccc(C(=O)C[n+]2cccc3cc(OC)ccc32)cc1 | active: 16.4 µM | –
O=C(O)C[C@H]1c2cc(F)ccc2S(=O)(=O)N1C1CCCC1 | inconclusive: 14.6 µM [rising, partial curve, poor fit] | –
CC(C)c1ccc2c(c1)CC[C@H]1[C@](C)(CN)CCC[C@]21C | inconclusive: 29.1 µM [cytotoxic, single point] | –
O=C(Nc1ccc2c(c1)OCO2)c1ccc(CO)cc1 | inactive | –
Cc1cc(/C=C2\SC(=S)NC2=O)c(C)n1-c1ccc(O)cc1 | inconclusive: 2.91 µM [rising, full curve] | –
CC(=O)Nc1ccc(C(=O)Nc2nc(-c3cccnc3)cs2)cc1 | inconclusive: 29.1 µM [rising, single point] | –
O=C(Nc1cccc(-c2nnc(-c3ccco3)o2)c1)C(c1ccccc1)c1ccccc1 | inactive | –
Cc1c(C(=O)N2CCc3ccccc3C2)oc2ccc(S(=O)(=O)N3CCCCCC3)cc12 | inconclusive: 23.1 µM [cytotoxic, single point] | –
NC1=NC(c2ccccc2C(F)(F)F)N(c2ccc(F)c(Cl)c2)C(N)=N1 (stereo not given) | inactive | –
Cc1noc(C)c1NC(=O)N(C)C[C@H]1Oc2ccc(NC(=O)NC3CCCCC3)cc2C(=O)N([C@H](C)CO)C[C@@H]1C | inactive | –
CCN1C(=O)c2ccccc2S(=O)c2ccc(C(=O)N3CCN(c4ccc(F)cc4)CC3)cc21 (stereo not given) | – | inconclusive: -34.5% [cytotoxic]
S=C(Nc1ccc(Cl)cc1)NC1CCN(Cc2ccccc2)CC1 | inconclusive: 29.1 µM [cytotoxic, single point] | –
O=C(Nc1ccc2oc(-c3cccc4c(Br)cccc34)nc2c1)c1ccc(Br)cc1 | inactive | –
COC(=O)c1ccc(C(=O)OC)c(-n2c(=O)c3ccccc3c3ccccc3c2=O)c1 | inconclusive: 18.4 µM [cytotoxic, single point] | –
O=c1oc2ccccc2c(Nc2cccc(O)c2)c1[N+](=O)[O-] | inactive | –
CC(=O)N1CCCc2ccc(NS(=O)(=O)c3ccc(C)cc3)cc21 | inconclusive: 29.1 µM [cytotoxic, single point] | –
CC(=O)Nc1cccc(C(=O)N/N=C/c2ccc(F)cc2)c1 | inconclusive: 1.46 µM [rising, full curve] | –
O=Nc1c2cc(-c3ccccc3)[nH]nc-2c2ccccc12 | inconclusive: 7.31 µM [cytotoxic, partial curve] | –
C=CCN1C(=O)SC(Cc2cccc(OC)c2O)C1=O (stereo not given) | inconclusive: 29.1 µM [rising, single point] | –
Cc1ccc2nc(C3CCCN(C(=S)Nc4ccccc4C)C3)[nH]c2c1 (stereo not given) | inactive | –
CC(C)OC(=O)c1c(-c2ccc(C(C)C)cc2)csc1NC(=O)C1CCCO1 (stereo not given) | inconclusive: 29.1 µM [cytotoxic, single point] | –
COc1ccc(-c2cc(C(=O)N3CC4(C)CC3CC(C)(C)C4)no2)cc1 (stereo not given) | inconclusive: 32.6 µM [cytotoxic, single point] | –
NN=C1c2ccccc2-c2ccc(N)cc21 | inactive | –
COc1ccccc1OCC(O)Cn1c(=N)n(Cc2ccccc2)c2ccccc21 (stereo not given) | active: 16.4 µM | –

Random excerpt: three records from the list.
Structure (SMILES) | Potency | activity change, negative = cytotoxic
S=C(Nc1ccc(Cl)cc1)NC1CCN(Cc2ccccc2)CC1 | inconclusive: 29.1 µM [cytotoxic, single point] | –
O=Nc1c2cc(-c3ccccc3)[nH]nc-2c2ccccc12 | inconclusive: 7.31 µM [cytotoxic, partial curve] | –
COc1ccccc1OCC(O)Cn1c(=N)n(Cc2ccccc2)c2ccccc21 (stereo not given) | active: 16.4 µM | –

(next part)

Structure (SMILES) | Potency | activity change, negative = cytotoxic
COc1cccc(-c2cnc(NCc3cc(Cl)ccc3O)n2C)c1 | inconclusive: 11.6 µM [cytotoxic, partial curve] | –
COc1ccc(Cl)cc1NC(=O)CN(C)C(=O)CCc1nc2ccccc2c(=O)[nH]1 | inactive | –
COc1ccccc1/C=C/C(=O)OCC(=O)Nc1ccccc1Sc1ccccc1 | inconclusive: 29.1 µM [rising, single point] | –
COc1ccc(NC(=O)CN(C)C(=O)c2cn(-c3ccccc3)nc2-c2ccc(Cl)cc2)cc1 | inconclusive: 0.731 µM [cytotoxic, single point] | –
O=C(c1cccc(S(=O)(=O)N2CCCC2)c1)N1CCN(Cc2ccccc2)CC1 | inactive | –
CCN(C(=S)NC(=O)c1ccccc1Br)C1CCCCC1 | inactive | –
Cc1ccc(S(=O)(=O)N2CCN(S(=O)(=O)c3ccc4c(c3)OCCO4)CC2)cc1 | inconclusive: 16.4 µM [rising, single point] | –
Cc1ccc(C(=O)Nc2ccc(C)c(S(=O)(=O)Nc3ccccc3Cl)c2)s1 | active: 23.1 µM | –
O=C(Cn1nnc(-c2ccccc2)n1)N/N=C/c1cc([N+](=O)[O-])ccc1O | inconclusive: 29.1 µM [cytotoxic, single point] | –
Brc1cccc[n+]1Cc1ccc(C[n+]2ccccc2Br)cc1 | inconclusive: 14.6 µM [rising, single point] | –
CCCC(=O)N1CCC1(C)C(=O)NS(=O)(=O)c1ccc(F)cc1F (stereo not given) | inactive | –
CCn1cc2nc(SCC(=O)Nc3ccc(OC)cc3OC)n(Cc3ccc(OC)cc3)c(=O)c2n1 | inconclusive: 6.51 µM [cytotoxic, full curve, poor fit] | –
COCCCNC(=O)COC(=O)c1ccc(-c2nc3ccccc3s2)s1 | inconclusive: 4.61 µM [cytotoxic, partial curve, poor fit] | –
CN(C1=NS(=O)(=O)N=C(N(C)c2ccccc2)O1)c1ccccc1 | inconclusive: 25.9 µM [cytotoxic, single point] | –
CCOc1ccccc1NC(=O)c1cccc2ccccc12 | inconclusive: 32.6 µM [cytotoxic, single point] | –
C/C(CC(=O)Nc1ccc(OCc2ccccc2)cc1)=N\NC(=O)C(=O)Nc1ccc(C)c(Cl)c1 | inconclusive: 29.1 µM [cytotoxic, single point] | –
CC(C)(C)c1ccc(C(=O)N2CCC(C(=O)NC3CCCCCC3)CC2)cc1 | inconclusive: 16.4 µM [cytotoxic, single point] | –
O=C(C1CCCN(S(=O)(=O)c2ccc(F)cc2)C1)N1CCCC1 (stereo not given) | inactive | –
Cc1nc2cc(-c3ccc(Cl)cc3)nn2c(NCCN(C)C)c1C | inactive | –
Cc1ccc(NC2=NCC(Cc3ccc(Br)cc3)S2)cc1 (stereo not given) | inconclusive: 32.6 µM [cytotoxic, single point] | –
O=C(NC1CCCC1)c1ccc2nc(-c3ccco3)c(-c3ccco3)nc2c1 | inconclusive: 25.9 µM [rising, partial curve, poor fit] | –
COc1cc(OC)c(NC(=O)Nc2nnc(N(C)C3CCCCC3)s2)cc1Cl | inactive | –
